Source: PubChem BioAssay AID1259308 (NCATS, 2017)
Shown is one part, drawn at random, of about 59,000 reagents. About 1,510 of all reagents (2.6%) were called active. 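Calls use total luciferase alone and ignore viability, so some active siRNAs may act by altering cell number.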 A number with no mark means an inactive call. Reagents against one gene are numbered here.

Assay: 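Knock-downs that increase output of a recombinant reporter protein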 (primary screen)
System: human HEK293 embryonic kidney cells stably expressing firefly luciferase (HEK-CMV-Luc2-Hygro)
Reagent: single siRNA against human genes, 0.8 pmol siRNA per well
Duration: 72 h
Measured: 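Reporter luminescence and viable-cell signal on separate replicate plates, given as percent of non-targeting control and median/MAD z-scores, plus per-cell luciferase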
Direction: total luciferase, z-score and total luciferase, % of control: higher = more reporter protein produced; luciferase per cell, z-score: higher = more reporter output per viable cell; viable cells, % of control: higher = more viable cells
Hit rule: 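Active when the median/MAD z-score for overall luciferase is greater than 3; a gene was taken forward for validation with new siRNAs if at least two of its three siRNAs passed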
Calls: active = raised luciferase; inactive = no rise

gene knocked down	reagent no.	total luciferase, z-score	total luciferase, % of control	luciferase per cell, z-score	viable cells, % of control
HOXD9	1	-0.226	77.4	0.227	81.5
HOXD9	2	0.176	85.4	1.12	71.1
HOXD9	3	-1.23	57.4	-1.31	90.6
UBE2NL	1	2.11	124	1.37	96.4
UBE2NL	2	1.14	104	0.495	102
UBE2NL	3	1.37	109	0.833	97.9
GRIN1	1	0.832	98.4	0.345	100
GRIN1	2	0.41	90	0.678	84.2
GRIN1	3	-1.49	52.3	-1.73	92.1
TNFSF9	1	-0.711	67.7	0.371	68.7
TNFSF9	2	0.127	84.4	0.128	91.2
TNFSF9	3	-0.387	74.2	0.19	78.9
UTP14A	1	-1.44	53.2	-1.15	80.5
UTP14A	2	-0.0684	80.5	0.983	69.5
UTP14A	3	-2.03	41.6	-3.03	103
RAB11FIP5	1	0.284	87.5	0.701	81.3
RAB11FIP5	2	-0.712	67.7	-0.485	86
RAB11FIP5	3	0.375	89.3	0.33	91.5
VCL	1	-1.28	56.4	-2.1	109
VCL	2	-0.757	66.8	-0.886	94.3
VCL	3	-0.394	74.1	-0.916	105
UIMC1	1	0.406	90	-0.0773	103
UIMC1	2	1.52	112	1.2	91.3
UIMC1	3	0.0817	83.5	-0.505	107
FEZF1	1	1.68	115	1.18	94.5
FEZF1	2	1.6	114	0.38	115
FEZF1	3	1.59	114	0.793	103
THAP8	1	1.63	114	1.93	76.8
THAP8	2	-0.698	68	0.225	71.6
THAP8	3	0.132	84.5	-0.091	96.7
YOD1	1	-0.514	71.7	-0.779	98.3
YOD1	2	0.442	90.7	-0.0554	103
YOD1	3	1.79	117	1.53	87.7
MAPK8IP3	1	1.32	108	0.823	97.2
MAPK8IP3	2	2.16	125	1.7	89.3
MAPK8IP3	3	0.384	89.5	0.0908	97.7
ADGRL4	1	0.132	84.5	0.213	89.3
ADGRL4	2	0.473	91.3	-0.187	107
ADGRL4	3	-0.22	77.5	-1.24	120
IL1R2	1	-1.21	57.8	-1.35	92.2
IL1R2	2	1.21	106	1.82	73.4
IL1R2	3	0.345	88.8	0.484	87.3
APPBP2	1	0.239	86.6	0.274	90.1
APPBP2	2	-0.248	77	0.414	77.1
APPBP2	3	1.8	118	1.15	97.2
PRKCI	1	0.85	98.8	1.7	70.5
PRKCI	2	0.206	86	0.0453	94.9
PRKCI	3	1.44	111	0.583	106
ZNF571	1	-0.175	78.4	-0.155	91.3
ZNF571	2	-0.145	79	-0.22	93.6
ZNF571	3	1.42	110	1.94	73.9
BRIP1	1	-1.17	58.6	-1.43	95.3
BRIP1	2	1.04	103	0.923	90
BRIP1	3	0.911	100	0.33	102
MYO10	1	-0.141	79.1	0.587	75.7
MYO10	2	-0.198	78	-0.129	90.1
MYO10	3	-0.107	79.8	-0.414	99.4

Not a retest: an excerpt of the list.
gene knocked down	reagent no.	total luciferase, z-score	total luciferase, % of control	luciferase per cell, z-score	viable cells, % of control
VCL	1	-1.28	56.4	-2.1	109
VCL	2	-0.757	66.8	-0.886	94.3
VCL	3	-0.394	74.1	-0.916	105
UIMC1	1	0.406	90	-0.0773	103
UIMC1	2	1.52	112	1.2	91.3
UIMC1	3	0.0817	83.5	-0.505	107
FEZF1	1	1.68	115	1.18	94.5
FEZF1	2	1.6	114	0.38	115
